Laboratory results from paper PMC7819943, “Rice protein-binding microarrays: a tool to detect cis-acting elements near promoter regions in rice”.
This is one part of the list.

biological target: T1, OsSMF1 (Oryza sativa, UniProt Q6ZLB0 1-436); assay: protein-binding microarray (RPBM); PBS, 2% BSA, 51.3 ng/ul salmon testes DNA, 50 uM zinc acetate, 200 nM TF, 25 C, 1 h; high values mean tight binding; settings: protein: recombinant; tags: N-terminal polyhistidine and DsRed monomer fusion (pET32a); chain copies: 2; label: CyDye5-dUTP incorporated in the synthesized complementary strand; 3' TTTTT single-stranded linker to array surface; dsDNA, one strand shown
T1 sequence: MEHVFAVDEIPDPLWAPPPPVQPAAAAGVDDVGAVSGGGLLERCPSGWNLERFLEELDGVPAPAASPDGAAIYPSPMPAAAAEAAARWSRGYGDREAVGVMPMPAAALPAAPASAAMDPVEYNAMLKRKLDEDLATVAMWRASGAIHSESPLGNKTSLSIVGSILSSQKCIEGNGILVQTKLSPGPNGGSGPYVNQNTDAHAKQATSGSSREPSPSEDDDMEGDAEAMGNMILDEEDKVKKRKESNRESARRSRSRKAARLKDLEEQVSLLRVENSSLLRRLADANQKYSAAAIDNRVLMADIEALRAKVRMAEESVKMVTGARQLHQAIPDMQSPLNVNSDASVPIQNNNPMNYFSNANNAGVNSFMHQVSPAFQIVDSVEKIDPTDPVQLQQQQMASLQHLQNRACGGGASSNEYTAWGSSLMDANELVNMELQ
Summary of the method: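 Binding signal is defined as the fluorescence intensity of each feature in arbitrary units, read on an Axon 4000B scanner. Transcription factors with N-terminal polyhistidine and DsRed fusions came from E. coli BL21-CodonPlus and were purified on Ni–NTA. They were incubated at 200 nM for 1 h at 25 °C on a custom Agilent array that had been made double-stranded with Cy5-dUTP, with 50 µM zinc acetate present, and the array was washed.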

Sequence | binding signal
GTACAGGTGAGTGCCCCACGTGTCACGTTTCTTGCCACGTCGGAGTCACCTAGTGCAG | 29500 fluorescence intensity (a.u.)
TGCTGATGGTCAGGCTTGTTACAGTTGCAGCTGCTAAGGTCGGAGTCACCTAGTGCAG | 7200 fluorescence intensity (a.u.)
AATATTCTCTGTCTCGGTGTGGTGTCTCTCCTCTGACGGCCGGAGTCACCTAGTGCAG | 4810 fluorescence intensity (a.u.)
CAGCCAAACCCCACGCCACGCACACACACACCCATCTCTCCGGAGTCACCTAGTGCAG | 5580 fluorescence intensity (a.u.)
CTTCCCTACGACATCGAGGGCGTCATCGAGTGAGTAGTGTCGGAGTCACCTAGTGCAG | 3610 fluorescence intensity (a.u.)
GCTCCCTCGACGACCTCGTCAAGTCCCTCCGCGCCGACCCCGGAGTCACCTAGTGCAG | 4170 fluorescence intensity (a.u.)
CCCCGCCGACCCCGCCGCCGCCCGCTGCTCCTTCGACCAGCGGAGTCACCTAGTGCAG | 3150 fluorescence intensity (a.u.)
GCAACCACCAGCTGACAGGGCGTTTTCTCACGTCGCATTTCGGAGTCACCTAGTGCAG | 4440 fluorescence intensity (a.u.)
CCAGCCGCGCGCGCGCACGCACGCCGCCGTCGTGACGTCGCGGAGTCACCTAGTGCAG | 3780 fluorescence intensity (a.u.)
GCCACCTCGCATCGCCGTGCCTGATGTTGCCATCGTGTTGCGGAGTCACCTAGTGCAG | 4450 fluorescence intensity (a.u.)
AACCCTAAGCCTCACCTATATAATGCTCCACCACGCCGCCCGGAGTCACCTAGTGCAG | 4360 fluorescence intensity (a.u.)
AGCCGTCCGATCGTCCGCCACGTCATCGATCCGCGTGACTCGGAGTCACCTAGTGCAG | 27100 fluorescence intensity (a.u.)
GATTGTTATGTCACTTGTCTGTGGATCAAGTCTCAAGCCCCGGAGTCACCTAGTGCAG | 3560 fluorescence intensity (a.u.)
AATACCCTCCTCTCGCCTCGCGAAACCCCAGAACCACGCCCGGAGTCACCTAGTGCAG | 3650 fluorescence intensity (a.u.)
TTTGTCTCGCAATTTACACGTAAACTGTGTCATTGATTTTCGGAGTCACCTAGTGCAG | 4260 fluorescence intensity (a.u.)
TTATATCCAGATCACATCTAGTATTAGGCTGTGTTCGGCGCGGAGTCACCTAGTGCAG | 32800 fluorescence intensity (a.u.)
AGCTCTGGCCGCCGCTCCTTCCTCTCCCGTCATGCGCATGCGGAGTCACCTAGTGCAG | 3850 fluorescence intensity (a.u.)
TTTTATCCAGTCCGATTTTCGTCCTTGACTGCAAAACCGGCGGAGTCACCTAGTGCAG | 3270 fluorescence intensity (a.u.)
ATTAGATGATGTGGCGACTACGTGGCTAATTTGACTCAGTCGGAGTCACCTAGTGCAG | 18400 fluorescence intensity (a.u.)
TGCGCCGTCTGCGTCAGCGTGCCTCGTCGCAGTCGCAGGCCGGAGTCACCTAGTGCAG | 6400 fluorescence intensity (a.u.)
TTAGACAGTGACCCATCAACACTTGGCCAACGCCAAGTCGCGGAGTCACCTAGTGCAG | 3650 fluorescence intensity (a.u.)
CGCGACGCGACCCGGCCCCGCGACGTGGACGCCCCGGACGCGGAGTCACCTAGTGCAG | 4590 fluorescence intensity (a.u.)
ACTGACCCGTCCGTCCTCACCGTCGCACAGTGTGAGTGAGCGGAGTCACCTAGTGCAG | 3370 fluorescence intensity (a.u.)
GTGGGTGGTTGGGCCTGTTGCAACGTGGTATAGCGTTGGACGGAGTCACCTAGTGCAG | 4450 fluorescence intensity (a.u.)
AATCTTATTCCGTCGGTGGTGATTTCGTCAATCTCCCAACCGGAGTCACCTAGTGCAG | 3160 fluorescence intensity (a.u.)
ACTATCTTCAACTAAGAATGACGCAATTGCACCCCAAACACGGAGTCACCTAGTGCAG | 5020 fluorescence intensity (a.u.)
CTCTTCTCCTCCAAGGATGGGGAGGTGGGGATGGTGGGGACGGAGTCACCTAGTGCAG | 3470 fluorescence intensity (a.u.)

Part of the list above in a different format.
CCCCGCCGACCCCGCCGCCGCCCGCTGCTCCTTCGACCAGCGGAGTCACCTAGTGCAG
  binding signal: 3150 fluorescence intensity (a.u.)
TGCGCCGTCTGCGTCAGCGTGCCTCGTCGCAGTCGCAGGCCGGAGTCACCTAGTGCAG
  binding signal: 6400 fluorescence intensity (a.u.)
CTCTTCTCCTCCAAGGATGGGGAGGTGGGGATGGTGGGGACGGAGTCACCTAGTGCAG
  binding signal: 3470 fluorescence intensity (a.u.)

(further entries)

Sequence | binding signal
ATCCACATAGAGTAGCAGGTAGACCATATCAGCACCGTGGCGGAGTCACCTAGTGCAG | 3320 fluorescence intensity (a.u.)
CTGTCACGCTGACATCACTCCTCTCCTCCACCATGGCTTGCGGAGTCACCTAGTGCAG | 9570 fluorescence intensity (a.u.)
ACAAAATTTTCATCGTCATCCACGATCCAACCACCAGCTGCGGAGTCACCTAGTGCAG | 4970 fluorescence intensity (a.u.)
TTGGTGGCGGAAAGCCGCGACACGTTGGCGATGACGGGGACGGAGTCACCTAGTGCAG | 11200 fluorescence intensity (a.u.)
GAATGGTATCAGGGTGGTTGAACAAGAACAAAGGCCACATCGGAGTCACCTAGTGCAG | 3730 fluorescence intensity (a.u.)
GATCTTGATGAGTTATACCACTTTATTGTTGATGACCTTTCGGAGTCACCTAGTGCAG | 4850 fluorescence intensity (a.u.)
CAACCAATCAATCACATACGTGGACAACTGCAGAAAATGCCGGAGTCACCTAGTGCAG | 5610 fluorescence intensity (a.u.)
CGGCTTTGATGACTCGACGGTGAATATTAAGGAAACGCCTCGGAGTCACCTAGTGCAG | 7140 fluorescence intensity (a.u.)
GCGCGCGCCCGCATCATTGCGCCATCACTCTCTCGCTCGCCGGAGTCACCTAGTGCAG | 29500 fluorescence intensity (a.u.)
CTTAATTTCAGCTTACTGATCAGTGATCACTGAGCTAGCTCGGAGTCACCTAGTGCAG | 5910 fluorescence intensity (a.u.)
TGCCTGGCATGGGATGTACACTAGAGTGCTTTGCATGGCACGGAGTCACCTAGTGCAG | 3370 fluorescence intensity (a.u.)
GTGGTTTCGAAGTGACGTAATAGTGGGTACTTAACGTGTACGGAGTCACCTAGTGCAG | 5400 fluorescence intensity (a.u.)
ACATTTGCTAACGTGTAGTATGTGTGTAGTGCCATGTGTTCGGAGTCACCTAGTGCAG | 8150 fluorescence intensity (a.u.)
AGTCACGTACGCACCGCTCGGCGCTCGCTAGCTGCCACCACGGAGTCACCTAGTGCAG | 4380 fluorescence intensity (a.u.)
CTCTTCCCTGCCATGGCTCCTCTCCTGACCCGGCCAAAGGCGGAGTCACCTAGTGCAG | 3260 fluorescence intensity (a.u.)
GAGTTAACTATAGTGAACTTGCCACGTCAACAAAACCAGTCGGAGTCACCTAGTGCAG | 23700 fluorescence intensity (a.u.)
ATGGTGATCGGACGGCTGAGATTGCGTGGTGGTGGCGGGACGGAGTCACCTAGTGCAG | 3680 fluorescence intensity (a.u.)
CACAGTAAAGTACTACCTGCTTCCCTGTTTGGAACAGTCACGGAGTCACCTAGTGCAG | 3450 fluorescence intensity (a.u.)
TAACACATGTAAAACAAACAGGTAATAACTCAAGTAAGTACGGAGTCACCTAGTGCAG | 3150 fluorescence intensity (a.u.)
ATGGTGATCGAATGGTGTGACGGGGTTATGTATTTAGATACGGAGTCACCTAGTGCAG | 4220 fluorescence intensity (a.u.)
CGCCGCCTGGAGGATGACGTAGGTGTTCGTCTGCGCGAACCGGAGTCACCTAGTGCAG | 4730 fluorescence intensity (a.u.)
TACAATGCCAGCATGTGTTTCATAGTACTGTGTCCTGTCACGGAGTCACCTAGTGCAG | 4830 fluorescence intensity (a.u.)
TGGAGGACACTGATTCGTTTACGCATATAAAGTTTATACGCGGAGTCACCTAGTGCAG | 3150 fluorescence intensity (a.u.)
CTCCTTACCCCTCCCCTTGTGGTGACGTCGACGGGACGGACGGAGTCACCTAGTGCAG | 9620 fluorescence intensity (a.u.)
GAGGAGCCCTGACCTGCATGGTGAAGTTGACGTGGTCCTGCGGAGTCACCTAGTGCAG | 6590 fluorescence intensity (a.u.)
TTCATGATTTTGCCACGATTACTCGGTGTCACCGTGTCACCGGAGTCACCTAGTGCAG | 6220 fluorescence intensity (a.u.)
GGGGTTAGTCGCCGGAGGTGTGGCGTGTCGACACGTACGCCGGAGTCACCTAGTGCAG | 8720 fluorescence intensity (a.u.)
